These are yes or no findings as the source states them, for the method shown. In cells and extracts the contact can be indirect. Binding calls can cover weak binding; strength is not graded here. For some assays here: Where a sequence is shown, tags or fusion partners need not be part of it.
T1: Meq full length (339 aa), pcDNA3.1-Meq (Marek's disease virus) (UniProt Q9DGW5)
T1 sequence: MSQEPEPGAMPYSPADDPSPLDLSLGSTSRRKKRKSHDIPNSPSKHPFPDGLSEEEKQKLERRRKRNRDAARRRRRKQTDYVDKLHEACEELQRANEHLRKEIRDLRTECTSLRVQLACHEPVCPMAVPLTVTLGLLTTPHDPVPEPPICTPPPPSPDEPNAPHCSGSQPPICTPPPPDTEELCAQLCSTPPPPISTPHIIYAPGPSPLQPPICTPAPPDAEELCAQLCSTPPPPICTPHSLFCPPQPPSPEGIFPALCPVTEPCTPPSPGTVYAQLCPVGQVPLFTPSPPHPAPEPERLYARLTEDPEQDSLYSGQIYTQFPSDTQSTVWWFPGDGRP


Columns and labels:
[1] = biological target: T1, Meq full length (339 aa), pcDNA3.1-Meq (Marek's disease virus); assay: co-IP; DF-1 cells co-transfected with Meq (wild type or mutant) and FLAG-apoptin, lysed after 24-48 h, pre-cleared; precipitated with rabbit anti-Meq (blot FLAG) or anti-FLAG (blot monoclonal Meq) and protein-G sepharose beads; rabbit anti-mouse as isotype control
[2] = biological target: N-terminal GST-apoptin fusion protein (chicken anemia virus); assay: pull-down; GST-apoptin on glutathione sepharose beads incubated with MSB-1 cell lysate; western blot with anti-Meq monoclonal antibody FD7; GST as negative control; only the target purified
[3] = biological target: N-terminal FLAG-tagged full length apoptin (pcDNA3.1) (chicken anemia virus); assay: co-IP; DF-1 cells co-transfected with Meq (wild type or mutant) and FLAG-apoptin, lysed after 24-48 h, pre-cleared; precipitated with rabbit anti-Meq (blot FLAG) or anti-FLAG (blot monoclonal Meq) and protein-G sepharose beads; rabbit anti-mouse as isotype control
[4] = biological target: N-terminal FLAG-tagged full length apoptin (pcDNA3.1) (chicken anemia virus); assay: co-IP; DF-1 cells co-transfected with N-terminal HA-tagged Meq (full length or C-terminal truncations) and FLAG-apoptin; precipitated with anti-Meq or anti-FLAG; blot with HA-HRP conjugate antibody; mouse anti-Myc as isotype control

Row | Molecule | binding [4] | other results
1 | N-terminal FLAG-tagged full length apoptin (pcDNA3.1) (chicken anemia virus) |  | binding [1]: binds
2 | Meq, endogenous in MSB-1 cells (protein, UniProt Q9DGW5 1-339) MSQEPEPGAMPYSPADDPSPLDLSLGSTSRRKKRKSHDIPNSPSKHPFPDGLSEEEKQKLERRRKRNRDAARRRRRKQTDYVDKLHEACEELQRANEHLRKEIRDLRTECTSLRVQLACHEPVCPMAVPLTVTLGLLTTPHDPVPEPPICTPPPPSPDEPNAPHCSGSQPPICTPPPPDTEELCAQLCSTPPPPISTPHIIYAPGPSPLQPPICTPAPPDAEELCAQLCSTPPPPICTPHSLFCPPQPPSPEGIFPALCPVTEPCTPPSPGTVYAQLCPVGQVPLFTPSPPHPAPEPERLYARLTEDPEQDSLYSGQIYTQFPSDTQSTVWWFPGDGRP |  | binding [2]: binds
3 | Meq full length (339 aa), pcDNA3.1-Meq (protein, UniProt Q9DGW5 1-339) MSQEPEPGAMPYSPADDPSPLDLSLGSTSRRKKRKSHDIPNSPSKHPFPDGLSEEEKQKLERRRKRNRDAARRRRRKQTDYVDKLHEACEELQRANEHLRKEIRDLRTECTSLRVQLACHEPVCPMAVPLTVTLGLLTTPHDPVPEPPICTPPPPSPDEPNAPHCSGSQPPICTPPPPDTEELCAQLCSTPPPPISTPHIIYAPGPSPLQPPICTPAPPDAEELCAQLCSTPPPPICTPHSLFCPPQPPSPEGIFPALCPVTEPCTPPSPGTVYAQLCPVGQVPLFTPSPPHPAPEPERLYARLTEDPEQDSLYSGQIYTQFPSDTQSTVWWFPGDGRP |  | binding [3]: binds
4 | N-terminal HA tagged C-terminal truncated Meq 1-140 (domain or fragment, UniProt Q9DGW5 1-140) MSQEPEPGAMPYSPADDPSPLDLSLGSTSRRKKRKSHDIPNSPSKHPFPDGLSEEEKQKLERRRKRNRDAARRRRRKQTDYVDKLHEACEELQRANEHLRKEIRDLRTECTSLRVQLACHEPVCPMAVPLTVTLGLLTTP | binds | 
5 | N-terminal HA tagged C-terminal truncated Meq 1-170 (domain or fragment, UniProt Q9DGW5 1-170) MSQEPEPGAMPYSPADDPSPLDLSLGSTSRRKKRKSHDIPNSPSKHPFPDGLSEEEKQKLERRRKRNRDAARRRRRKQTDYVDKLHEACEELQRANEHLRKEIRDLRTECTSLRVQLACHEPVCPMAVPLTVTLGLLTTPHDPVPEPPICTPPPPSPDEPNAPHCSGSQP | binds | 
6 | N-terminal HA tagged full length Meq (1-339) (protein, UniProt Q9DGW5 1-339) MSQEPEPGAMPYSPADDPSPLDLSLGSTSRRKKRKSHDIPNSPSKHPFPDGLSEEEKQKLERRRKRNRDAARRRRRKQTDYVDKLHEACEELQRANEHLRKEIRDLRTECTSLRVQLACHEPVCPMAVPLTVTLGLLTTPHDPVPEPPICTPPPPSPDEPNAPHCSGSQPPICTPPPPDTEELCAQLCSTPPPPISTPHIIYAPGPSPLQPPICTPAPPDAEELCAQLCSTPPPPICTPHSLFCPPQPPSPEGIFPALCPVTEPCTPPSPGTVYAQLCPVGQVPLFTPSPPHPAPEPERLYARLTEDPEQDSLYSGQIYTQFPSDTQSTVWWFPGDGRP | binds | 
7 | N-terminal HA tagged C-terminal truncated Meq 1-80 (domain or fragment, UniProt Q9DGW5 1-80) MSQEPEPGAMPYSPADDPSPLDLSLGSTSRRKKRKSHDIPNSPSKHPFPDGLSEEEKQKLERRRKRNRDAARRRRRKQTD | no binding | 
8 | N-terminal HA tagged C-terminal truncated Meq 1-130 (domain or fragment, UniProt Q9DGW5 1-130) MSQEPEPGAMPYSPADDPSPLDLSLGSTSRRKKRKSHDIPNSPSKHPFPDGLSEEEKQKLERRRKRNRDAARRRRRKQTDYVDKLHEACEELQRANEHLRKEIRDLRTECTSLRVQLACHEPVCPMAVPL | no binding | 
